Experimental data as given in patent publication US7510717B2, “Non-toxic mutants of pathogenic gram-negative bacteria” (University of Iowa Research Foundation, priority 1996, dated 2009).
For at least one compound, name, drawing or mass did not settle the structure.

What was measured:
NTHi 2019 = assay: Sensitivity to kanamycin (growth in culture); assay type: cell-based, H. influenzae; details: 5 μg/ml kanamycin, 30° C.
NTHi htrB mutant strains = assay: Sensitivity to kanamycin and deoxycholate (growth in culture); assay type: cell-based, H. influenzae; details: 5 μg/ml kanamycin, NTHi htrB mutants

## NC[C@H]1O[C@H](O[C@H]2[C@H](O)[C@@H](O[C@H]3O[C@H](CO)[C@@H](O)[C@H](N)[C@H]3O)[C@H](N)C[C@@H]2N)[C@H](O)[C@@H](O)[C@@H]1O [kanamycin]
NTHi 2019
  growth in the presence of kanamycin: not affected
NTHi htrB mutant strains; 30° C.
  growth in the presence of kanamycin: significantly inhibited
NTHi htrB mutant strains; 37° C.
  growth in the presence of kanamycin: failed to show growth
